Reference: the supplement of paper PMC4749390
Counter-ions that a name gives are not always drawn. Some of the results follow. Repeats in this data set agree poorly, so a single value says little.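 Wild-type human LRH-1, a heavily sumoylated nuclear receptor, is tetracycline-inducible in stable JEG3 cells. RT-qPCR measured SUMO-sensitive APOC3 and MUC1 transcripts, which rise with SUMO-less LRH-1 or UBC9 knockdown, versus TBP and DMSO controls. Robust Z-scores beyond ±2 flagged primary hits, followed by toxicity and TBP filtering.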

tested on: JEG3 expressing hLRH-1; test: APOC3 transcript change (ddCt vs TBP and DMSO), Z-score over library; higher = higher APOC3 expression; conditions: 10 µM; time (hr): 24

Point of comparison: Nc1ccc(S(=O)(=O)O)cc1 [sulfanilate zinc], “APOC3 transcript change (Z-score)” value -1.44. Against it:
- Cc1ncc(CSSCc2cnc(C)c(O)c2CO)c(CO)c1O [pyritinol] — higher, -0.256
- C=C1C[C@H]2[C@@H]3C=C(C)C4=CC(=O)CC[C@]4(C)[C@H]3CC[C@]2(C)[C@@]1(OC(C)=O)C(C)=O [melengestrol acetate] — higher, 0.049
- CC(C(=O)O)c1ccc(N2Cc3ccccc3C2=O)cc1 (configuration not stated) [indoprofen] — higher, 0.112
- O=C(O)c1cc(=O)c2ccccc2o1 [chromocarb] — higher, 0.301
- CC(=O)c1ccc2c(c1)N(CCCN1CCC(CCO)CC1)c1ccccc1S2 [piperacetazine] — higher, 0.0402
- COc1cc(/C=C/C(N)=O)cc(OC)c1OC [cintriamide] — higher, 0.37
- NCCS(=O)(=O)O [taurine] — higher, -0.788
- CCCc1nn(C)c2c(O)nc(-c3cc(S(=O)(=O)N4CCN(C)CC4)ccc3OCC)nc12 [sildenafil] — higher, 1.02
- Oc1c(I)cc(I)c2cccnc12 [iodoquinol] — higher, 0.4
- Cc1cccc(C)c1NC(=O)C1CCCCN1C (configuration not stated) [mepivacaine hydrochloride] — higher, 0.0889
- COc1cc(C(=O)NCCCCCC(=O)O)cc(OC)c1OC [capobenic acid] — higher, -0.0679
- O=C(NCCCN1CCOCC1)c1ccc(Cl)cc1 [eprobemide] — higher, -0.365
- CCCCCC(C)N (configuration not stated) [tuaminoheptane sulfate] — higher, -0.15
- O=C(Oc1ccccc1C(=O)O)c1ccccc1O [salsalate] — higher, 0.622
- Cc1ncc([N+](=O)[O-])n1CCO [metronidazole] — higher, -0.556
- CCOC(=O)[C@H](CCc1ccccc1)N[C@@H](C)C(=O)N1CCC[C@H]1C(=O)O [enalapril maleate] — higher, 1.15
- C[N+](C)(C)CCOC(N)=O [Carbachol] — higher, 1.02
- O=c1[nH]c(=O)n([C@H]2C[C@H](O)C(CO)O2)cc1I (some centres not stated) [idoxuridine] — higher, 5.13
- CC(=O)OC/C=C(C)/C=C/C=C(C)/C=C/C1=C(C)CCCC1(C)C [retinyl acetate] — higher, 0.17
- NC[C@H]1O[C@H](O[C@H]2[C@H](O[C@@H]3O[C@H](CO)[C@@H](O)[C@H]3O)[C@@H](O)[C@H](N)C[C@@H]2N)[C@H](N)[C@@H](O)[C@@H]1O [ribostamycin sulfate] — higher, -0.317
- C=CC[C@@H]1/C=C(\C)C[C@H](C)C[C@H](OC)[C@H]2O[C@@](O)(C(=O)C(=O)N3CCCC[C@H]3C(=O)O[C@H](/C(C)=C/[C@@H]3CC[C@@H](O)[C@H](OC)C3)[C@H](C)[C@@H](O)CC1=O)[C@H](C)C[C@@H]2OC [tacrolimus] — higher, 1.12
- NC[C@@H]1CC[C@@H](N)[C@@H](O[C@H]2[C@H](O)[C@@H](O[C@H]3O[C@H](CO)[C@@H](O)[C@H](N)[C@H]3O)[C@H](N)C[C@@H]2N)O1 [dibekacin] — higher, 0.345
- O=S(=O)(O)CCS [mesna] — higher, -0.872
- CC(C)NCC(O)COc1ccc(COCCOC(C)C)cc1 (configuration not stated) [bisoprolol fumarate] — higher, -0.725
- CC(C)(Oc1ccc(C(=O)c2ccc(Cl)cc2)cc1)C(=O)O [fenofibric acid] — higher, -0.342
- Nc1nc(Cl)nc2c1ncn2[C@@H]1O[C@H](CO)[C@@H](O)[C@@H]1F [clofarabine] — higher, 4.26
- Nc1nc(N)nc(-c2cc(Cl)ccc2Cl)n1 [irsogladine maleate] — higher, -0.179
- CCOc1cc(NC(C)=O)ccc1C(=O)OC [ethopabate] — higher, 0.327
- OC[C@H]1O[C@@H](n2cnc3c(O)ncnc32)[C@H](O)[C@@H]1O [inosine] — higher, -0.153
- CS(=O)(=O)c1ccc([C@@H](O)[C@@H](CO)NC(=O)C(Cl)Cl)cc1 [thiamphenicol] — higher, -0.143
- Cn1cnc2c1c(=O)[nH]c(=O)n2C [Theobromine] — higher, -0.546
- O=C(O)CCCCC(=O)O [adipic acid] — higher, -0.2
- CC1CCc2c(N3CCC(O)CC3)c(F)cc3c(=O)c(C(=O)O)cn1c23 (configuration not stated) [nadifloxacin] — higher, -1.06
- Cc1c(C)c2c(c(C)c1O)CCC(C)(CCCC(C)CCCC(C)CCCC(C)C)O2 (stereo not drawn) [alpha-tochopherol] — higher, -0.499
- COc1ccc(CN(CCN(C)C)c2ccccn2)cc1 [Pyrilamine maleate] — higher, -0.505
- CCCNC(C)C(=O)Nc1ccccc1C (configuration not stated) [prilocaine hydrochloride] — higher, -0.0247
- CCn1cc(C(=O)O)c(=O)c2ccc(C)nc21 [nalidixic acid] — higher, -0.0319
- CNCCC=C1c2ccccc2CCc2ccccc21 [Nortriptyline hydrochloride] — higher, 2.53
- C=CCc1ccc(O)c(OC)c1 [eugenol] — higher, -0.896
- CCN1C(=O)NC(c2ccccc2)C1=O (configuration not stated) [ethotoin] — higher, 0.359
- CN1C(C(=O)Nc2ccccn2)=C(O)c2sc(Cl)cc2S1(=O)=O [lornoxicam] — higher, -0.205
- CCCCCCCCCCCCCCCC[N+](C)(C)CCN(Cc1ccc(OC)cc1)c1ncccn1 [thonzonium bromide] — higher, 0.604
- C[C@]12CCC(=O)C=C1CC[C@@H]1[C@@H]2[C@@H](O)C[C@@]2(C)[C@H]1CC[C@]2(O)C(=O)COC(=O)CCC(=O)O [hydrocortisone hemisuccinate] — higher, -0.147
- CC(C)(C)NC[C@H](O)COc1nsnc1N1CCOCC1 [timolol maleate] — higher, -0.498
- Cc1c(OCC(F)(F)F)ccnc1C[S@@](=O)c1nc2ccccc2[nH]1 [dexlansoprazole] — higher, 0.295
- C=CCOC(Cn1ccnc1)c1ccc(Cl)cc1Cl (configuration not stated) [enilconazole] — higher, 0.0609
- OC(c1cc(C(F)(F)F)nc2c(C(F)(F)F)cccc12)C1CCCCN1 (configuration not stated) [mefloquine] — higher, 0.826
- CSCC[C@H](NC(=O)[C@H](Cc1c[nH]c2ccccc12)NC(=O)[C@H](C)NC(=O)OC(C)(C)C)C(=O)N[C@@H](CC(=O)O)C(=O)N[C@@H](Cc1ccccc1)C(N)=O [pentagastrin] — higher, 0.962
- CN1C(CC(=O)c2ccccc2)CCCC1CC(O)c1ccccc1 (configuration not stated) [lobeline hydrochloride] — higher, -0.478
- CC(=O)N[C@@H](CCC(N)=O)C(=O)O [aceglutamide] — higher, 2.66
- CCOC(=O)OC(C)OC(=O)[C@@H]1N2C(=O)[C@@H](NC(=O)[C@H](N)c3ccccc3)[C@H]2SC1(C)C (some centres not stated) [bacampicillin hydrochloride] — higher, -0.721
